From PubChem BioAssay AID330 (DTP/NCI, 2004) come the findings set out here.

This assay relates to P388 leukemia ip, CD2F1 mice, survival T/C. Description: NCI In Vivo Anticancer Drug Screen. Data for tumor model P388 Leukemia (intraperitoneal) in CD2F1 (CDF1) mice. The settings on record: T/C endpoint: median survival time, higher T/C = longer survival.
The mark [1] stands for this setting: dose: 50.0 mg/kg/injection, schedule: Q01DX005 (ip), vehicle: saline with Tween-80.
[2] abbreviates: dose: 100.0 mg/kg/injection, schedule: Q01DX005 (ip), vehicle: saline with Tween-80.
Setting [3] is: dose: 200.0 mg/kg/injection, schedule: Q01DX005 (ip), vehicle: saline with Tween-80.

The list shows only some results of the screen, not a fair sample: it is rich in T/C values a quarter to a half above the control, in often repeated tests (any T/C) and in doses without a T/C. Other doses and runs of a compound stand elsewhere. T/C gives the treated animals as a percentage of the vehicle group. Some entries give survivors of the animals treated and no T/C: the source files T/C as zero there, which appears to mark a toxic dose or a test without result, not a measured value. Some survivor counts are full or nearly so, which does not show that the dose was tolerated: the source hardly ever lists a survival T/C far under the control, and the zero likely stands for such cases as well. Counts of survivors are from the toxicity check (mostly the fifth day) where no day follows; animals may have died later. Schedules are NCI's codes, taken here to give the interval after Q, in days (D) or hours (H), and the number of doses after X. Some entries were tested several times; the results are listed from low to high. Where survival is the endpoint, this PubChem deposit counts one and a half times the control or more as active, and values a quarter to a half above the control carry no call in these data; other NCI protocols may use other cut-offs. Some T/C values are followed by the survivors on the day toxicity was checked, most often the fifth; where none is given, no animal had died by that day.

Consider `CNC(=O)OCc1c(COC(=O)NC)c(-c2ccc(C)cc2)n(C)c1C`, for which the T/C is, setting by setting: (dose: 3.13 mg/kg/injection, schedule: Q01DX009 (ip), vehicle: distilled water + Tween-80) 134 % of control; (dose: 6.25 mg/kg/injection, schedule: Q01DX009 (ip), vehicle: distilled water + Tween-80) 125 and 138 % of control; (dose: 12.5 mg/kg/injection, schedule: Q01DX009 (ip), vehicle: distilled water + Tween-80) 134 and 144 % of control; (dose: 25.0 mg/kg/injection, schedule: Q01DX009 (ip), vehicle: distilled water + Tween-80) 141 and 144 % of control. For the same compound, the survivor count by setting is: (dose: 50.0 mg/kg/injection, schedule: Q01DX009 (ip), vehicle: distilled water + Tween-80) 3 of 6 and 5 of 6; (dose: 100.0 mg/kg/injection, schedule: Q01DX009 (ip), vehicle: distilled water + Tween-80) 0 of 6.

On to `CNC(=O)Oc1ccc2c(c1)[C@]1(C)CCN(C)[C@@H]1N2C`, for which the survivor count is given as 0 of 6 (dose: 0.78 mg/kg/injection, schedule: Q01DX005 (ip), vehicle: saline with Tween-80); 0 of 6 (dose: 1.56 mg/kg/injection, schedule: Q01DX005 (ip), vehicle: saline with Tween-80); 0 of 6 (dose: 3.13 mg/kg/injection, schedule: Q01DX005 (ip), vehicle: saline with Tween-80); 0 of 6 (dose: 6.25 mg/kg/injection, schedule: Q01DX005 (ip), vehicle: saline with Tween-80); 0 of 6 (dose: 12.5 mg/kg/injection, schedule: Q01DX005 (ip), vehicle: saline with Tween-80); 0 of 6 (dose: 25.0 mg/kg/injection, schedule: Q01DX005 (ip), vehicle: saline with Tween-80). In addition, the survivor count by setting is: under setting [1], 0 of 5; under setting [2], 0 of 5; under setting [3], 0 of 5.

For `COc1cc(C=C2C(=O)C=CC2=O)cc(OC)c1OC`, the survivor count is recorded as 0 of 6 (dose: 25.0 mg/kg/injection, schedule: Q04DX002 (ip), vehicle: saline with Tween-80); 0 of 6 (dose: 50.0 mg/kg/injection, schedule: Q04DX002 (ip), vehicle: saline with Tween-80); 1 of 6 (dose: 100.0 mg/kg/injection, schedule: Q04DX002 (ip), vehicle: saline with Tween-80).

Turning to `CCOC(=O)c1c(-c2ccccc2)csc1NC(=O)CN1CCOCC1`, the survivor count is, setting by setting: under setting [1], 6 of 6; under setting [2], 6 of 6.

On to `COc1cc2c(c(OC)c1OC)-c1ccc(OC)c(=O)cc1[C@@H](NC(=O)c1ccc([N+](=O)[O-])cc1)CC2`, for which the T/C is 130 % of control (dose: 0.78 mg/kg/injection, schedule: Q01DX009 (ip), vehicle: Klucel (hydroxypropylcellulose) (HPC)); 143 % of control (dose: 1.56 mg/kg/injection, schedule: Q01DX009 (ip), vehicle: Klucel (hydroxypropylcellulose) (HPC)); 128 % of control (dose: 2.0 mg/kg/injection, schedule: Q01DX009 (ip), vehicle: Klucel (hydroxypropylcellulose) (HPC)); 134 % of control (dose: 3.12 mg/kg/injection, schedule: Q01DX009 (ip), vehicle: Klucel (hydroxypropylcellulose) (HPC)); 136 % of control [5 of 6 alive] (dose: 4.0 mg/kg/injection, schedule: Q01DX009 (ip), vehicle: Klucel (hydroxypropylcellulose) (HPC)); 148 % of control (dose: 6.25 mg/kg/injection, schedule: Q01DX009 (ip), vehicle: Klucel (hydroxypropylcellulose) (HPC)). In addition, the survivor count was 4 of 6 (dose: 12.5 mg/kg/injection, schedule: Q01DX009 (ip), vehicle: Klucel (hydroxypropylcellulose) (HPC)) and 2 of 6 (dose: 25.0 mg/kg/injection, schedule: Q01DX009 (ip), vehicle: Klucel (hydroxypropylcellulose) (HPC)).

Consider `NC(CO)C(=O)NC(CCC(=O)O)C(=O)NC(CO)C(=O)NC(CCC(=O)O)C(=O)NC(Cc1ccc(N(CCCl)CCCl)cc1)C(=O)O` (stereo unspecified), for which the T/C (dose: 160.0 mg/kg/injection, schedule: Q04DX003 (ip), vehicle: water) is 128 % of control.

As for `Nc1nc2ccccc2n1C(=O)C(F)(F)F`, the survivor count (dose: 400.0 mg/kg/injection, schedule: Q01DX001 (ip), vehicle: Klucel (hydroxypropylcellulose) (HPC)) was 2 of 6.

For the compound `NNc1ccccn1`, the survivor count runs as follows: (dose: 50.0 mg/kg/injection, schedule: Q01DX009 (ip), vehicle: saline) 2 of 6; (dose: 100.0 mg/kg/injection, schedule: Q01DX009 (ip), vehicle: saline) 0 of 6; (dose: 200.0 mg/kg/injection, schedule: Q01DX009 (ip), vehicle: saline) 0 of 6.

Regarding `O=C1C=CC2(CC=CCC2)CC1` (stereo unspecified), the survivor count by setting is: (dose: 50.0 mg/kg/injection, schedule: Q01DX008 (ip), vehicle: Klucel (hydroxypropylcellulose) (HPC)) 4 of 6; (dose: 50.0 mg/kg/injection, schedule: Q01DX009 (ip), vehicle: Klucel (hydroxypropylcellulose) (HPC)) 5 of 6.

Turning to `O=C1c2cc([N+](=O)[O-])cc3cc([N+](=O)[O-])cc(c23)C(=O)N1CCNCCN1C(=O)c2cc([N+](=O)[O-])cc3cc([N+](=O)[O-])cc(c23)C1=O`, the T/C under setting [2] was 130 % of control.

As for `CC1CC(C)(C)N=C(Cc2ccccc2)O1` (stereo unspecified), for the setting “dose: 400.0 mg/kg/injection, schedule: Q01DX009 (ip), vehicle: saline with Tween-80”, the survivor count is on record as 0 of 6.

Consider `CCCCCCCCCCCC1=C(O)C(=O)C(Cl)=C(O)C1=O`, for which the survivor count was 4 of 6 under setting [2] and 0 of 6 under setting [3].

Take `NC(=O)c1nc2c(N)nc(-c3ccccc3)nc2nc1N`: the survivor count (dose: 75.0 mg/kg/injection, schedule: Q01DX009 (ip), vehicle: saline with Tween-80) is 6 of 6.

`COc1ccc2c(Cc3ccccc3)c3[n+](cc2c1OC)CCc1cc2c(cc1-3)OCO2`: the T/C is, setting by setting: (dose: 3.12 mg/kg/injection, schedule: Q01DX005 (ip), vehicle: Klucel (hydroxypropylcellulose) (HPC)) 128 % of control; (dose: 6.25 mg/kg/injection, schedule: Q01DX005 (ip), vehicle: Klucel (hydroxypropylcellulose) (HPC)) 133 % of control. Also, the survivor count is recorded as 5 of 5 (dose: 12.5 mg/kg/injection, schedule: Q01DX005 (ip), vehicle: Klucel (hydroxypropylcellulose) (HPC)); 0 of 5 (dose: 25.0 mg/kg/injection, schedule: Q01DX005 (ip), vehicle: Klucel (hydroxypropylcellulose) (HPC)); 0 of 6 (dose: 50.0 mg/kg/injection, schedule: Q01DX005 (ip), vehicle: Klucel (hydroxypropylcellulose) (HPC)); 0 of 6 (dose: 100.0 mg/kg/injection, schedule: Q01DX005 (ip), vehicle: Klucel (hydroxypropylcellulose) (HPC)); 0 of 6 (dose: 200.0 mg/kg/injection, schedule: Q01DX005 (ip), vehicle: Klucel (hydroxypropylcellulose) (HPC)).

`O=c1c2ccccc2sc2c1c(N(CCO)CCO)cc1ccccc12`: the survivor count (dose: 200.0 mg/kg/injection, schedule: Q01DX005 (ip), vehicle: distilled water + Tween-80) is given as 3 of 6.

Turning to `COc1cc(C(NC(N)=O)c2cc3c(cc2OC(C)=O)OCO3)cc(OC)c1OC` (stereo unspecified), where the note is “dose: 240.0 mg/kg/injection, schedule: Q01DX005 (ip), vehicle: Klucel (hydroxypropylcellulose) (HPC)”, the survivor count is 6 of 6.

Turning to `CCOC(=O)N(NC(=O)c1ccccc1)C(C)=O`, the survivor count is, setting by setting: (dose: 100.0 mg/kg/injection, schedule: Q01DX009 (ip), vehicle: other) 2 of 6; (dose: 200.0 mg/kg/injection, schedule: Q01DX009 (ip), vehicle: other) 0 of 6.

Take `CC(C)=CCC(/C=N/N=C(N)N)C(C)C` (stereo unspecified): the survivor count (dose: 50.0 mg/kg/injection, schedule: Q01DX005 (ip), vehicle: saline) was 5 of 6; the survivor count (dose: 100.0 mg/kg/injection, schedule: Q01DX005 (ip), vehicle: saline) is 0 of 6; the survivor count (dose: 200.0 mg/kg/injection, schedule: Q01DX005 (ip), vehicle: saline) is recorded as 0 of 6.

In the case of `CCOc1ccccc1NC1=C(Cl)C(=O)c2ccccc2C1=O`, the survivor count is reported as 0 of 6 (dose: 120.0 mg/kg/injection, schedule: Q01DX005 (ip), vehicle: saline with Tween-80) and 0 of 6 (dose: 240.0 mg/kg/injection, schedule: Q01DX005 (ip), vehicle: saline with Tween-80).
